Test results reported in patent publication US20050063973A1 (URIFER, published 2005).
No constants are given. Whether binding was seen depends on the method and setting. In cells and extracts the contact can be indirect. Some binding calls cover weakened binding; strength is not graded here.

The chains behind the UniProt entries cited, without tags or fusion partners.
UniProt P70451: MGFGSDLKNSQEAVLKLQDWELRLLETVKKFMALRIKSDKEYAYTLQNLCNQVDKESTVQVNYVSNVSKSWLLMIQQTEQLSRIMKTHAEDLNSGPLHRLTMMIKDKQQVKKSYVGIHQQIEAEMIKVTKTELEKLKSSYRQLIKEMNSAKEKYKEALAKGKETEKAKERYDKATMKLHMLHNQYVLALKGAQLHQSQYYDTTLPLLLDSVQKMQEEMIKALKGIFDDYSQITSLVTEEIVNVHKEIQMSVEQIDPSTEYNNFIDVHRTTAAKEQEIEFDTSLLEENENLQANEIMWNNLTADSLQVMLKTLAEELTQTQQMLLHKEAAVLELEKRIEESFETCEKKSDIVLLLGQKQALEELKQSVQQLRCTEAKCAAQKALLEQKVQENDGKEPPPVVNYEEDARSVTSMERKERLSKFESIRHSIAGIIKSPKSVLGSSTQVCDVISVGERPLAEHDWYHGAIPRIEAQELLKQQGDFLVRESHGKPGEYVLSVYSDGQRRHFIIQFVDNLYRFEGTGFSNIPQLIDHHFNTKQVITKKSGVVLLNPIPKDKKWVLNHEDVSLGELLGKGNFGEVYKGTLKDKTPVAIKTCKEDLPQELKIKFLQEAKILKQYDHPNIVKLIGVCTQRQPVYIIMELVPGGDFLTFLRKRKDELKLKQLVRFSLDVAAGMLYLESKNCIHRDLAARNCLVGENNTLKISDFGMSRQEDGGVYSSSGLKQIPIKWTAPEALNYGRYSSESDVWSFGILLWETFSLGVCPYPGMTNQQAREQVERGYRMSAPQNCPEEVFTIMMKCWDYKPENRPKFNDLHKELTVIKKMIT

Key:
[1] = target: Fer tyrosine kinase (endogenous protein of C2C12 cells) (UniProt P70451); test: co-immunoprecipitation
[2] = target: Fer tyrosine kinase (endogenous protein of C2C12 cells) (UniProt P70451); test: co-immunoprecipitation from C2C12 extracts
[3] = target: Fer tyrosine kinase (endogenous protein of C2C12 cells) (UniProt P70451); test: co-immunoprecipitation from MG132 treated C2C12 cells
[4] = target: Fer tyrosine kinase (endogenous protein of C2C12 cells) (UniProt P70451); test: co-immunoprecipitation with αTMF/ARA160, Western blot with αFER (FIG. 5)
[5] = target: Fer tyrosine kinase (endogenous protein of C2C12 cells) (UniProt P70451); test: co-immunoprecipitation with αTMF/ARA160 from C2C12 extracts, Western blot with αFer

Measured: binding

B1: TMF/ARA160 (endogenous protein of C2C12, NIH3T3 and T127 cells) (protein, UniProt B9EKI3 1-1091, looked up)
chain: MSWFNASQLSSFAKQALSQAQKSIDRVLDIQEEEPSAWAEAIPYGEPGISPPVSGGWDTSTWGLNSTSSEPQSPPTASQAITKPVRRTVVDESENFFSAFLSPSDAHTIQKSPVVSKPPSKSQRPEEEVKSSLQESSSPGQSRVSETAEVRDSVCVSGETSAVGTPSPVPEDKHEETAGEESEVKVPTVRLKASENVVNVNTTEDVSTTSTQSLTAETKDMALEPKEQKHEDRQSNTPSPPVSSFSSGTSTTSDIEVLDHESVISESSASSRQETSDAKSSLHLMQTSFQLLSASACPEYSRLDDFQKLNESCCSSDAFERIDSFSVQSLDSRSVSEINSDDELPGKGYALVPIIVSPSTPKTKVVESTEENAEEEEGNETLVAPSEEAELEESGRSATPVNCDQPDILASPTAGSGGHSASGPATEQCEAVENQPKAPPEKEDVCKTVEFLNEKLEKRETQLLSLSKEKALLEEAYDNLKDEMFRVKEESSSISSLKDEFTQRIAEAEKKVQLACKERDAAKKEMKTIKEELATRLNSSQTADLLKEKDEQIQGLMEEGEKLSKQQLHNSNIIKKLRAKDKDNENVIAKLNRKAKELEEELQHLRQVLDGKEEVEKQHRENIKKLNSVVERQEKDLGRLQVDMDELEEKSRSTQAALDSAYRELTDLHKANAAKDSEVQEAALRREMKAKEELSGALEKAQEEARQQQEALVLQVGDLRLALQRAEQAAARKEDYLRHEISELQQRLQEAENRNQELSQSVSSTARPLLRQIENLQATLGSQTSSWETLEKSLSDRLGESQTLLAAAVERERAATEELLANKIQMSSVESQNTLLRQENSRLQAQLESEKNKLRKLEDENSRYQVELENLKDEYVRTLEESRKEKTLLSSQLEMERMKVEQERKKTIFTQEALKEKDHKLFSVCSTPTMSRSSSISGVDAAGLQASFLSQDESHDHSFGPMSTSASGSNLYEAVRMGAGSSIIENLQSQLKLREGEISHLQLEISNLEKTRSIMSEELVKLTNQNDELEEKVKEIPKLRVQLRDLDQRYNTILQMYGEKAEEAEELRLDLEDVKNMYKTQIDELLRQRLS
binds: all assays above
